{"source": "PubChem BioAssay AID1053208 | Peter MacCallum Cancer Centre – 2014", "purpose": "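Find knock-downs that sensitise mouse osteosarcoma cells to doxorubicin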 (primary screen)", "cells": "mouse osteosarcoma cells, early-passage culture from an engineered mouse model of fibroblastic bone tumour", "reagents": "siRNA pool against mouse genes, 40 nM", "timing": "about 120 h (48 h before drug, then 72 h with drug)", "challenge": "doxorubicin 100 nM for 72 h, roughly 30-40% inhibitory dose", "measurement": "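Viability read as ATP luminescence after 72 h of 100 nM doxorubicin or none, duplicate wells averaged, scaled to non-targeting siRNA, then expressed as robust z-scores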", "direction": "viability z-score with doxorubicin: higher = more viable cells under doxorubicin; viability z-score without drug: higher = more viable cells with knock-down alone", "call rule": "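Called active if knock-down leaves viability unchanged without drug (z within -2 to 2) but lowers it with doxorubicin (z at or under -2)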", "note": "In all, the deposit lists about 17,000 reagents; below is a random part of them. 788 of them (4.7%) were called active. 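Calls rest on z-score classes alone; an extra cut-off of viability at most 70% of control was not applied to them.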 The numbers tell different reagents against one gene apart. Not all columns of the deposit are shown."}
{"gene":"Arsa","pool no.":1,"combined z-score class":"high cell count with and without drug","viability z-score with doxorubicin":2.36,"viability z-score without drug":2.53,"call":"inactive"}
{"gene":"Rabgap1","pool no.":1,"combined z-score class":"no change with or without drug","viability z-score with doxorubicin":0.56,"viability z-score without drug":-0.84,"call":"inactive"}
{"gene":"Tmco6","pool no.":1,"combined z-score class":"low cell count without drug only","viability z-score with doxorubicin":0.67,"viability z-score without drug":-7.25,"call":"inactive"}
{"gene":"Srfbp1","pool no.":1,"combined z-score class":"no change with or without drug","viability z-score with doxorubicin":-1.12,"viability z-score without drug":-0.34,"call":"inactive"}
{"gene":"Rpl36al","pool no.":1,"combined z-score class":"no change with or without drug","viability z-score with doxorubicin":-0.9,"viability z-score without drug":-1.18,"call":"inactive"}
{"gene":"Rbp1","pool no.":1,"combined z-score class":"no change with or without drug","viability z-score with doxorubicin":-1.35,"viability z-score without drug":0.51,"call":"inactive"}
{"gene":"St8sia1","pool no.":1,"combined z-score class":"no change with or without drug","viability z-score with doxorubicin":0.22,"viability z-score without drug":0.51,"call":"inactive"}
{"gene":"St8sia1","pool no.":2,"combined z-score class":"no change with or without drug","viability z-score with doxorubicin":-1.24,"viability z-score without drug":-1.18,"call":"inactive"}
{"gene":"Jph1","pool no.":1,"combined z-score class":"no change with or without drug","viability z-score with doxorubicin":-1.12,"viability z-score without drug":-0.17,"call":"inactive"}
{"gene":"Stard4","pool no.":1,"combined z-score class":"no change with or without drug","viability z-score with doxorubicin":0,"viability z-score without drug":0.51,"call":"inactive"}
{"gene":"Cadm1","pool no.":1,"combined z-score class":"no change with or without drug","viability z-score with doxorubicin":-0.67,"viability z-score without drug":0.51,"call":"inactive"}
{"gene":"Vmn1r236","pool no.":1,"combined z-score class":"no change with or without drug","viability z-score with doxorubicin":1.01,"viability z-score without drug":-0.17,"call":"inactive"}
{"gene":"Hoxc5","pool no.":1,"combined z-score class":"no change with or without drug","viability z-score with doxorubicin":-0.9,"viability z-score without drug":-0.84,"call":"inactive"}
{"gene":"Tdpoz5","pool no.":1,"combined z-score class":"no change with or without drug","viability z-score with doxorubicin":0.56,"viability z-score without drug":-0.84,"call":"inactive"}
{"gene":"Rerg","pool no.":1,"combined z-score class":"no change with or without drug","viability z-score with doxorubicin":0.79,"viability z-score without drug":-0.34,"call":"inactive"}
{"gene":"H1f3","pool no.":1,"combined z-score class":"no change with or without drug","viability z-score with doxorubicin":-1.24,"viability z-score without drug":0.51,"call":"inactive"}

Next part, starting with the last 2 of the part before.
{"gene":"Rerg","pool no.":1,"combined z-score class":"no change with or without drug","viability z-score with doxorubicin":0.79,"viability z-score without drug":-0.34,"call":"inactive"}
{"gene":"H1f3","pool no.":1,"combined z-score class":"no change with or without drug","viability z-score with doxorubicin":-1.24,"viability z-score without drug":0.51,"call":"inactive"}
{"gene":"Atxn7l1","pool no.":1,"combined z-score class":"no change with or without drug","viability z-score with doxorubicin":0.45,"viability z-score without drug":0.17,"call":"inactive"}
{"gene":"Wdr11","pool no.":1,"combined z-score class":"no change with or without drug","viability z-score with doxorubicin":-0.45,"viability z-score without drug":0.34,"call":"inactive"}
{"gene":"Cdk1","pool no.":1,"combined z-score class":"no change with or without drug","viability z-score with doxorubicin":-0.22,"viability z-score without drug":-0.51,"call":"inactive"}
{"gene":"Or1o2","pool no.":1,"combined z-score class":"no change with or without drug","viability z-score with doxorubicin":-1.91,"viability z-score without drug":-0.51,"call":"inactive"}
{"gene":"Ms4a19","pool no.":1,"combined z-score class":"no change with or without drug","viability z-score with doxorubicin":-1.01,"viability z-score without drug":-0.84,"call":"inactive"}
{"gene":"Sox15","pool no.":1,"combined z-score class":"no change with or without drug","viability z-score with doxorubicin":0,"viability z-score without drug":1.01,"call":"inactive"}
{"gene":"Fosb","pool no.":1,"combined z-score class":"no change with or without drug","viability z-score with doxorubicin":-0.22,"viability z-score without drug":0.84,"call":"inactive"}
{"gene":"Klk1b8","pool no.":1,"combined z-score class":"no change with or without drug","viability z-score with doxorubicin":-0.67,"viability z-score without drug":-1.18,"call":"inactive"}
{"gene":"Ang4","pool no.":1,"combined z-score class":"no change with or without drug","viability z-score with doxorubicin":-1.12,"viability z-score without drug":-0.67,"call":"inactive"}
{"gene":"Mfap4","pool no.":1,"combined z-score class":"no change with or without drug","viability z-score with doxorubicin":1.24,"viability z-score without drug":0.17,"call":"inactive"}
{"gene":"Pcdhga12","pool no.":1,"combined z-score class":"low cell count with doxorubicin only","viability z-score with doxorubicin":-2.02,"viability z-score without drug":-0.84,"call":"active"}
{"gene":"Ggt6","pool no.":1,"combined z-score class":"no change with or without drug","viability z-score with doxorubicin":0.67,"viability z-score without drug":0.84,"call":"inactive"}
